Data reported in patent publication US11780893B2, “Kv1.3 blockers” (Zealand Pharma A/S, priority 2019, dated 2023).
Some results were stated once for a whole list of compounds, not compound by compound. Bridge positions count the residues as written; N and C are the ends. Square brackets hold non-standard residues; d marks the D form. Peptide text beside a SMILES is read from it. Nle = CCCC[C@H](N)C(=O)O

The chains behind the UniProt entries cited, without tags or fusion partners.
UniProt P22001, whole entry: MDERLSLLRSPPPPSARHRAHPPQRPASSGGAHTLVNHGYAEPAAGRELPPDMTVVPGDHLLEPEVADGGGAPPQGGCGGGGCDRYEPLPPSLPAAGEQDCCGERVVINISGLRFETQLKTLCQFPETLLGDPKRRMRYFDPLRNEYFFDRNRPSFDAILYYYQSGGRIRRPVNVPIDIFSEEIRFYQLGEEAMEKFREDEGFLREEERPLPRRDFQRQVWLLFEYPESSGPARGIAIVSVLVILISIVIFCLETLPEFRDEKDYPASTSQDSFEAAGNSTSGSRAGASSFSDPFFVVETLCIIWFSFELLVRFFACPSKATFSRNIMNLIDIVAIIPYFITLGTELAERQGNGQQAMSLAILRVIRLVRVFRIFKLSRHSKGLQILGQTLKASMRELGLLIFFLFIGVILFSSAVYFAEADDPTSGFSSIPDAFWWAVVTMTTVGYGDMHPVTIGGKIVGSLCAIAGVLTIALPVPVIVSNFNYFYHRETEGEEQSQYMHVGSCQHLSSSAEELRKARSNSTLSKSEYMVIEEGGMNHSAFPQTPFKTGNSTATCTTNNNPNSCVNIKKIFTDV
UniProt P16389, whole entry: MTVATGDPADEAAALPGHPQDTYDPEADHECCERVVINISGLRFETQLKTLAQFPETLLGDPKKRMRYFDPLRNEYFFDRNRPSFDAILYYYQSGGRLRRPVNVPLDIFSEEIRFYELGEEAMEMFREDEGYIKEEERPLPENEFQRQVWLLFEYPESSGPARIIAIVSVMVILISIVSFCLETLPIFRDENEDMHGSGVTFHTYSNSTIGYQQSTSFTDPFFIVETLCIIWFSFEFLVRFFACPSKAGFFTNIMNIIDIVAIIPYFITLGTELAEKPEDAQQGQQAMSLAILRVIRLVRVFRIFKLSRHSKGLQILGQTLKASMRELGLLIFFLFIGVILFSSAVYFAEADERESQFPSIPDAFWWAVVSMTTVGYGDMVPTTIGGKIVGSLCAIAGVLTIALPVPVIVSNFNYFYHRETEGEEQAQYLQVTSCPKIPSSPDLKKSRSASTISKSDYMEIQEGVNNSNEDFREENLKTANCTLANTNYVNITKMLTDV
UniProt P17658, whole entry: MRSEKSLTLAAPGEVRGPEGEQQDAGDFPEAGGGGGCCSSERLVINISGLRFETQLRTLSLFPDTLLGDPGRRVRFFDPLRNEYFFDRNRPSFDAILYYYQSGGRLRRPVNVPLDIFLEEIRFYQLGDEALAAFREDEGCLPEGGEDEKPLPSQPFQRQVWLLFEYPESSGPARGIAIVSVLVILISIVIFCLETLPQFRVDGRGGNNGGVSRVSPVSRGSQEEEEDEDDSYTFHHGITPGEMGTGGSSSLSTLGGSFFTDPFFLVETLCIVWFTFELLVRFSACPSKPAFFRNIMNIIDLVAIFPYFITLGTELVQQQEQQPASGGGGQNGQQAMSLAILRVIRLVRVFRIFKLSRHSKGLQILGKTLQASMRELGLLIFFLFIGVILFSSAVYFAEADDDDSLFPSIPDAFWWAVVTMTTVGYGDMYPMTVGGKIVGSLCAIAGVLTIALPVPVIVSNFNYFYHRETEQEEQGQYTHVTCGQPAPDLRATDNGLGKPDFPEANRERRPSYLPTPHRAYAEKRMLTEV

Assays:
Type in all cases: cell-based
[1] = target: T1, human Kv1.3 voltage-gated K+ channel (Homo sapiens, UniProt P22001)
T1 construct: host or cells: CHO-DUKX

Kv1.2 = target: T2, Kv1.2 (Homo sapiens, UniProt P16389)
T2 construct: expressed in transfected cells; host or cells: Chinese Hamster Ovary (CHO)

Kv1.6 = target: T3, Kv1.6 (Homo sapiens, UniProt P17658)
T3 construct: expressed in transfected cells; host or cells: Chinese Hamster Ovary (CHO)

SMILES | IC50 [1] [nM] | Selectivity Kv1.2/Kv1.3 (Kv1.2) | Selectivity Kv1.6/Kv1.3 (Kv1.6)
CC[C@H](C)[C@@H]1NC(=O)[C@H](C)NC(=O)[C@H](CCCCN)NC(=O)[C@H](CCCCN)NC(=O)[C@@H]2CSSC[C@@H](C(=O)N[C@@H](Cc3ccc(O)cc3)C(=O)N3CCC[C@H]3C(=O)N[C@@H](CCCNC(=N)N)C(N)=O)NC(=O)[C@H](CCCCN)NC(=O)[C@@H]3CSSC[C@H](NC(=O)[C@H](CCC(=O)O)NC(=O)[C@H](C(C)C)NC(=O)[C@H](CO)NC(=O)[C@H](C)NC(=O)[C@H](CO)NC(=O)[C@@H](NC(=O)[C@H](CCCNC(=N)N)NC(=O)[C@H](CCSC)NC(=O)[C@H](CC(=O)O)NC(=O)[C@H](CCSC)NC(=O)[C@@H](N)CC(N)=O)CSSC[C@H](NC(=O)[C@H](CCCCN)NC(=O)CNC(=O)[C@H](Cc4ccccc4)NC(=O)[C@H]([C@@H](C)CC)NC(=O)[C@H](CO)NC(=O)CNC1=O)C(=O)N[C@@H](CCSC)C(=O)N[C@@H](CC(N)=O)C(=O)N[C@@H](CCCCN)C(=O)N[C@@H](CCCCN)C(=O)N3)C(=O)N[C@@H](CCCCN)C(=O)N[C@@H](CCC(N)=O)C(=O)N[C@@H](CCCCN)C(=O)N2 [Compound 19] (H-NMDMRCSASVECKQKCKKAIGSIFGKCMNKKCKCYPR-NH2; disulfide 6-27, 12-32, 16-34) | ≤ 0.15 | at least 50 | at least 400
CC[C@H](C)[C@@H]1NC(=O)[C@H](C)NC(=O)[C@H](CCCCN)NC(=O)[C@H](CC(C)C)NC(=O)[C@@H]2CSSC[C@@H](C(=O)N[C@@H](Cc3ccc(O)cc3)C(=O)N3CCC[C@H]3C(=O)N[C@@H](CCCNC(=N)N)C(N)=O)NC(=O)[C@H](CCCCN)NC(=O)[C@@H]3CSSC[C@H](NC(=O)[C@H](CCC(=O)O)NC(=O)[C@H](C(C)C)NC(=O)[C@H](CO)NC(=O)[C@H](C)NC(=O)[C@H](CO)NC(=O)[C@@H](NC(=O)[C@H](CCCNC(=N)N)NC(=O)[C@H](CCSC)NC(=O)[C@H](CC(=O)O)NC(=O)[C@H](CCSC)NC(=O)[C@@H](N)CC(N)=O)CSSC[C@H](NC(=O)[C@H](CCCCN)NC(=O)CNC(=O)[C@H](Cc4ccccc4)NC(=O)[C@H]([C@@H](C)CC)NC(=O)[C@H](CO)NC(=O)[C@H](CCCNC(=N)N)NC1=O)C(=O)N[C@@H](CCSC)C(=O)N[C@@H](CC(N)=O)C(=O)N[C@@H](CCCCN)C(=O)N[C@@H](CCCCN)C(=O)N3)C(=O)N[C@@H](CCCCN)C(=O)N[C@@H](CCC(N)=O)C(=O)N[C@@H](CCCCN)C(=O)N2 [Compound 21] (H-NMDMRCSASVECKQKCLKAIRSIFGKCMNKKCKCYPR-NH2; disulfide 6-27, 12-32, 16-34) | ≤ 0.15 | at least 50 | at least 400
CC[C@H](C)[C@@H]1NC(=O)[C@H](C)NC(=O)[C@H](CCCCN)NC(=O)[C@H](CC(C)C)NC(=O)[C@@H]2CSSC[C@@H](C(=O)N[C@@H](Cc3ccc(O)cc3)C(=O)N3CCC[C@H]3C(=O)N[C@@H](CCCNC(=N)N)C(N)=O)NC(=O)[C@H](CCCCN)NC(=O)[C@@H]3CSSC[C@H](NC(=O)[C@H](CCC(=O)O)NC(=O)[C@H](CCCNC(=N)N)NC(=O)[C@H](CO)NC(=O)[C@H](C)NC(=O)[C@H](CO)NC(=O)[C@@H](NC(=O)[C@H](CCCNC(=N)N)NC(=O)[C@H](CCSC)NC(=O)[C@H](CC(=O)O)NC(=O)[C@H](CCSC)NC(=O)[C@@H](N)CC(N)=O)CSSC[C@H](NC(=O)[C@H](CCCCN)NC(=O)CNC(=O)[C@H](Cc4ccccc4)NC(=O)[C@H]([C@@H](C)CC)NC(=O)[C@H](CO)NC(=O)CNC1=O)C(=O)N[C@@H](CCSC)C(=O)N[C@@H](CC(N)=O)C(=O)N[C@@H](CCCCN)C(=O)N[C@@H](CCCCN)C(=O)N3)C(=O)N[C@@H](CCCCN)C(=O)N[C@@H](CCC(N)=O)C(=O)N[C@@H](CCCCN)C(=O)N2 [Compound 27] (H-NMDMRCSASRECKQKCLKAIGSIFGKCMNKKCKCYPR-NH2; disulfide 6-27, 12-32, 16-34) | ≤ 0.15 | at least 50 | at least 400
CC[C@H](C)[C@@H]1NC(=O)[C@H](C)NC(=O)[C@H](CCCCN)NC(=O)[C@H](CC(C)C)NC(=O)[C@@H]2CSSC[C@@H](C(=O)N[C@@H](Cc3ccc(O)cc3)C(=O)N3CCC[C@H]3C(=O)N[C@@H](CCCNC(=N)N)C(N)=O)NC(=O)[C@H](CCCCN)NC(=O)[C@@H]3CSSC[C@H](NC(=O)[C@H](CCC(N)=O)NC(=O)[C@H](C(C)C)NC(=O)[C@H](CO)NC(=O)[C@H](C)NC(=O)[C@H](CO)NC(=O)[C@@H](NC(=O)[C@H](CCCNC(=N)N)NC(=O)[C@H](CCSC)NC(=O)[C@H](CC(=O)O)NC(=O)[C@H](CCSC)NC(=O)[C@@H](N)CC(N)=O)CSSC[C@H](NC(=O)[C@H](CCCCN)NC(=O)CNC(=O)[C@H](Cc4ccccc4)NC(=O)[C@H]([C@@H](C)CC)NC(=O)[C@H](CO)NC(=O)CNC1=O)C(=O)N[C@@H](CCSC)C(=O)N[C@@H](CC(N)=O)C(=O)N[C@@H](CCCCN)C(=O)N[C@@H](CCCCN)C(=O)N3)C(=O)N[C@@H](CCCCN)C(=O)N[C@@H](CCC(N)=O)C(=O)N[C@@H](CCCCN)C(=O)N2 [Compound 28] (H-NMDMRCSASVQCKQKCLKAIGSIFGKCMNKKCKCYPR-NH2; disulfide 6-27, 12-32, 16-34) | ≤ 0.15 | at least 50 | at least 400
CC[C@H](C)[C@@H]1NC(=O)[C@H](C)NC(=O)[C@H](CCCCN)NC(=O)[C@H](CC(C)C)NC(=O)[C@@H]2CSSC[C@@H](C(=O)N[C@@H](Cc3ccc(O)cc3)C(=O)N3CCC[C@H]3C(=O)N[C@@H](CCCNC(=N)N)C(N)=O)NC(=O)[C@H](CCCCN)NC(=O)[C@@H]3CSSC[C@H](NC(=O)[C@H](CCC(=O)O)NC(=O)[C@H](C(C)C)NC(=O)[C@H](CO)NC(=O)[C@H](C)NC(=O)[C@H](CO)NC(=O)[C@@H](NC(=O)[C@H](CCCNC(=N)N)NC(=O)[C@H](CCSC)NC(=O)[C@H](CC(=O)O)NC(=O)[C@H](CCSC)NC(=O)[C@@H](N)CC(N)=O)CSSC[C@H](NC(=O)[C@H](CCCCN)NC(=O)CNC(=O)[C@H](Cc4ccccc4)NC(=O)[C@H](CCCNC(=N)N)NC(=O)[C@H](CO)NC(=O)CNC1=O)C(=O)N[C@@H](CCSC)C(=O)N[C@@H](CC(N)=O)C(=O)N[C@@H](CCCCN)C(=O)N[C@@H](CCCCN)C(=O)N3)C(=O)N[C@@H](CCCCN)C(=O)N[C@@H](CCC(N)=O)C(=O)N[C@@H](CCCCN)C(=O)N2 [Compound 35] (H-NMDMRCSASVECKQKCLKAIGSRFGKCMNKKCKCYPR-NH2; disulfide 6-27, 12-32, 16-34) | ≤ 0.15 | at least 50 | at least 400
CCCC[C@@H]1NC(=O)[C@@H]2CSSC[C@H](NC(=O)[C@H](CCCNC(=N)N)NC(=O)[C@H](CCCC)NC(=O)[C@H](CC(=O)O)NC(=O)[C@H](CCCC)NC(=O)[C@@H](N)CC(N)=O)C(=O)N[C@@H](CO)C(=O)N[C@@H](C)C(=O)N[C@@H](CO)C(=O)N[C@@H](C(C)C)C(=O)N[C@@H](CCC(=O)O)C(=O)N[C@H]3CSSC[C@H](NC(=O)[C@H](CCCCN)NC(=O)[C@H](CCCCN)NC(=O)[C@H](CC(N)=O)NC1=O)C(=O)N[C@@H](CCCCN)C(=O)N[C@H](C(=O)N[C@@H](Cc1ccc(O)cc1)C(=O)N1CCC[C@H]1C(=O)N[C@@H](CCCNC(=N)N)C(N)=O)CSSC[C@H](NC(=O)[C@H](CCCCN)NC(=O)[C@H](CCC(N)=O)NC(=O)[C@H](CCCCN)NC3=O)C(=O)N[C@@H](CC(C)C)C(=O)N[C@@H](CCCCN)C(=O)N[C@@H](C)C(=O)N[C@@H]([C@@H](C)CC)C(=O)NCC(=O)N[C@@H](CO)C(=O)N[C@@H]([C@@H](C)CC)C(=O)N[C@@H](Cc1ccccc1)C(=O)NCC(=O)N[C@@H](CCCCN)C(=O)N2 [Compound 40] (H-N[Nle]D[Nle]RCSASVECKQKCLKAIGSIFGKC[Nle]NKKCKCYPR-NH2; disulfide 6-27, 12-32, 16-34) | ≤ 0.15 | at least 50 | at least 400
CCCC[C@@H]1NC(=O)[C@@H]2CSSC[C@H](NC(=O)[C@H](CCCNC(=N)N)NC(=O)[C@H](CCCC)NC(=O)[C@H](CC(=O)O)NC(=O)[C@H](CCCC)NC(=O)[C@@H](N)CC(N)=O)C(=O)N[C@@H](CCCNC(=N)N)C(=O)N[C@@H](C)C(=O)N[C@@H](CO)C(=O)N[C@@H](C(C)C)C(=O)N[C@@H](CCC(=O)O)C(=O)N[C@H]3CSSC[C@H](NC(=O)[C@H](CCCCN)NC(=O)[C@H](CCCCN)NC(=O)[C@H](CC(N)=O)NC1=O)C(=O)N[C@@H](CCCCN)C(=O)N[C@H](C(=O)N[C@@H](Cc1ccc(O)cc1)C(=O)N1CCC[C@H]1C(=O)N[C@@H](CCCNC(=N)N)C(N)=O)CSSC[C@H](NC(=O)[C@H](CCCCN)NC(=O)[C@H](CCC(N)=O)NC(=O)[C@H](CCCCN)NC3=O)C(=O)N[C@@H](CC(C)C)C(=O)N[C@@H](CCCCN)C(=O)N[C@@H](C)C(=O)N[C@@H]([C@@H](C)CC)C(=O)NCC(=O)N[C@@H](CO)C(=O)N[C@@H]([C@@H](C)CC)C(=O)N[C@@H](Cc1ccccc1)C(=O)NCC(=O)N[C@@H](CCCCN)C(=O)N2 [Compound 42] (H-N[Nle]D[Nle]RCRASVECKQKCLKAIGSIFGKC[Nle]NKKCKCYPR-NH2; disulfide 6-27, 12-32, 16-34) | ≤ 0.15 | at least 50 | at least 400
